Reference: PubChem BioAssay AID192 (DTP/NCI, 2004)
The list shows only some results of the screen, not a fair sample: it gathers tests that were run many times, whatever their T/C, doses with no T/C, and many T/C values between a quarter and a half above the control. Further doses and runs are listed elsewhere. T/C gives the treated animals as a percentage of the vehicle group. Some entries give survivors of the animals treated and no T/C: the source files T/C as zero there, which appears to mark a toxic dose or a test without result, not a measured value. Some survivor counts are full or nearly so, which does not show that the dose was tolerated: the source hardly ever lists a survival T/C far under the control, and the zero likely stands for such cases as well. Counts of survivors are from the toxicity check (mostly the fifth day) where no day follows; animals may have died later. Schedule codes are those of the source, taken here to give the interval after Q, in days (D) or hours (H), and the number of doses after X. Some entries were tested several times; their values stand side by side, smallest first. For survival time, the PubChem record calls one and a half times the control and up active, and a quarter to a half above the control has no call in these data; cut-offs in other NCI protocols can differ.

Tested on: BDF1 mice, B16 melanoma ip, median survival T/C
Assay: NCI In Vivo Anticancer Drug Screen. Data for tumor model B16 Melanoma (intraperitoneal) in B6D2F1 (BDF1) mice
Details: T/C endpoint: median survival time, higher T/C = longer survival
Procedure, shortened: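 Vehicle-treated animals serve as the reference (C); treated animals (T) are scored for survival or tumor size after tumor transplantation.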

[1] = dose: 100.0 mg/kg/injection, schedule: Q01DX009 (ip), vehicle: Klucel (hydroxypropylcellulose) (HPC)
[2] = dose: 200.0 mg/kg/injection, schedule: Q01DX009 (ip), vehicle: Klucel (hydroxypropylcellulose) (HPC)
[3] = dose: 400.0 mg/kg/injection, schedule: Q01DX009 (ip), vehicle: Klucel (hydroxypropylcellulose) (HPC)
[4] = dose: 200.0 mg/kg/injection, schedule: Q01DX009 (ip), vehicle: saline
[5] = dose: 400.0 mg/kg/injection, schedule: Q01DX009 (ip), vehicle: saline
[6] = dose: 25.0 mg/kg/injection, schedule: Q01DX009 (ip), vehicle: Klucel (hydroxypropylcellulose) (HPC)
[7] = dose: 400.0 mg/kg/injection, schedule: Q01DX009 (ip), vehicle: saline with Tween-80

SMILES: Cc1c(Cl)cccc1NC(=O)Nc1ccc(Cl)c(Cl)c1
- survivor count [1]: 10 of 10
- survivor count [2]: 10 of 10
- survivor count [3]: 10 of 10

SMILES: c1ccc(N/N=C2/CCN3CCCc4cccc2c43)cc1
- survivor count (dose: 0.05 mg/kg/injection, schedule: Q04DX003 (ip), vehicle: DMSO): 8 of 10
- survivor count (dose: 0.1 mg/kg/injection, schedule: Q04DX003 (ip), vehicle: DMSO): 10 of 10
- survivor count (dose: 0.18 mg/kg/injection, schedule: Q01DX009 (ip), vehicle: DMSO): 10 of 10
- survivor count (dose: 0.2 mg/kg/injection, schedule: Q04DX003 (ip), vehicle: DMSO): 10 of 10
- survivor count (dose: 0.37 mg/kg/injection, schedule: Q01DX009 (ip), vehicle: DMSO): 10 of 10
- survivor count (dose: 0.4 mg/kg/injection, schedule: Q04DX003 (ip), vehicle: DMSO): 10 of 10
- survivor count (dose: 0.75 mg/kg/injection, schedule: Q01DX009 (ip), vehicle: DMSO): 10 of 10
- survivor count (dose: 0.75 mg/kg/injection, schedule: Q04DX003 (ip), vehicle: DMSO): 10 of 10
- survivor count (dose: 1.5 mg/kg/injection, schedule: Q01DX009 (ip), vehicle: DMSO): 10 of 10
- survivor count (dose: 1.5 mg/kg/injection, schedule: Q04DX003 (ip), vehicle: DMSO): 10 of 10
- survivor count (dose: 3.0 mg/kg/injection, schedule: Q01DX009 (ip), vehicle: DMSO): 10 of 10
- survivor count (dose: 3.0 mg/kg/injection, schedule: Q04DX003 (ip), vehicle: DMSO): 9 of 9
- survivor count (dose: 6.0 mg/kg/injection, schedule: Q04DX003 (ip), vehicle: DMSO): 10 of 10
- survivor count (dose: 6.25 mg/kg/injection, schedule: Q04DX003 (ip), vehicle: DMSO): 10 of 10
- survivor count (dose: 12.5 mg/kg/injection, schedule: Q01DX009 (ip), vehicle: DMSO): 5 of 8 and 10 of 10
- survivor count (dose: 12.5 mg/kg/injection, schedule: Q04DX003 (ip), vehicle: DMSO): 10 of 10
- survivor count (dose: 25.0 mg/kg/injection, schedule: Q01DX009 (ip), vehicle: DMSO): 5 of 10 and 10 of 10
- survivor count (dose: 25.0 mg/kg/injection, schedule: Q04DX003 (ip), vehicle: DMSO): 10 of 10
- survivor count (dose: 50.0 mg/kg/injection, schedule: Q01DX009 (ip), vehicle: DMSO): 5 of 10 and 9 of 10
- survivor count (dose: 50.0 mg/kg/injection, schedule: Q04DX003 (ip), vehicle: DMSO): 10 of 10
- survivor count (dose: 100.0 mg/kg/injection, schedule: Q01DX009 (ip), vehicle: DMSO): 0 of 10 and 7 of 10
- survivor count (dose: 6.0 micrograms/kg/injection, schedule: Q01DX009 (ip), vehicle: DMSO): 10 of 10
- survivor count (dose: 12.0 micrograms/kg/injection, schedule: Q01DX009 (ip), vehicle: DMSO): 10 of 10
- survivor count (dose: 50.0 micrograms/kg/injection, schedule: Q01DX009 (ip), vehicle: DMSO): 10 of 10

SMILES: O=Cc1ccc(C=O)c(Cl)c1
- survivor count (dose: 800.0 mg/kg/injection, schedule: Q01DX009 (ip), vehicle: Klucel (hydroxypropylcellulose) (HPC)): 0 of 10

SMILES: O=NN(CCCl)C(=O)NC1CCC(=O)NC1=O (stereo not given)
- T/C (dose: 0.7 mg/kg/injection, schedule: Q01DX009 (ip), vehicle: saline): 136 % of control
- survivor count (dose: 2.4 mg/kg/injection, schedule: Q01DX009 (ip), vehicle: saline): 10 of 10
- T/C (dose: 3.75 mg/kg/injection, schedule: Q01DX001 (ip), vehicle: saline + alcohol): 147 % of control
- T/C (dose: 30.0 mg/kg/injection, schedule: Q01DX001 (ip), vehicle: saline + alcohol): 125 % of control
- survivor count (dose: 32.0 mg/kg/injection, schedule: Q01DX009 (ip), vehicle: saline with Tween-80): 9 of 10
- survivor count (dose: 60.0 mg/kg/injection, schedule: Q01DX001 (ip), vehicle: saline + alcohol): 10 of 10 on day 6

SMILES: O=c1[nH]c(=O)c2nc(-c3cccnc3)cnc2[nH]1
- survivor count [4]: 10 of 10
- survivor count [5]: 10 of 10

SMILES: O=C1N[C@@H]([C@H]2CC[C@H](Cl)CN2)C(=O)N[C@H]1[C@H]1CC[C@H](Cl)CN1
- T/C (dose: 0.2 mg/kg/injection, schedule: Q01DX009 (ip), vehicle: saline): 128 % of control
- T/C (dose: 0.4 mg/kg/injection, schedule: Q01DX009 (ip), vehicle: saline): 130 % of control
- T/C (dose: 4.0 mg/kg/injection, schedule: Q01DX001 (ip), vehicle: saline): 143 % of control
- T/C (dose: 4.0 mg/kg/injection, schedule: Q04DX003 (ip), vehicle: saline): 146 % of control
- T/C (dose: 5.0 mg/kg/injection, schedule: Q01DX001 (ip), vehicle: saline): 140 % of control
- T/C (dose: 8.0 mg/kg/injection, schedule: Q01DX001 (ip), vehicle: saline): 143 % of control
- survivor count (dose: 8.0 mg/kg/injection, schedule: Q04DX003 (ip), vehicle: saline): 9 of 9
- T/C (dose: 10.0 mg/kg/injection, schedule: Q01DX001 (ip), vehicle: saline): 142 % of control
- survivor count (dose: 10.0 mg/kg/injection, schedule: Q01DX009 (ip), vehicle: saline sonified): 5 of 6
- survivor count (dose: 20.0 mg/kg/injection, schedule: Q01DX009 (ip), vehicle: saline sonified): 5 of 6
- survivor count (dose: 40.0 mg/kg/injection, schedule: Q01DX009 (ip), vehicle: saline sonified): 3 of 6
- survivor count (dose: 80.0 mg/kg/injection, schedule: Q01DX009 (ip), vehicle: saline sonified): 0 of 6

SMILES: NC(N)=NC1=NC(=O)CS1
- survivor count [3]: 10 of 10

SMILES: COC(=O)[C@@H]1c2cc3c(c(O)c2[C@@H](OC)C[C@@]1(C)O)C(=O)c1c(O)cc2c(c1C3=O)OC1O[C@@]2(C)[C@H](O)[C@@H](N(C)C)[C@@H]1O
- T/C (dose: 3.12 mg/kg/injection, schedule: Q01DX009 (ip), vehicle: saline): 134 % of control
- T/C (dose: 6.25 mg/kg/injection, schedule: Q01DX009 (ip), vehicle: saline): 130 % of control
- survivor count (dose: 100.0 mg/kg/injection, schedule: Q01DX009 (ip), vehicle: saline): 3 of 10 and 10 of 10
- survivor count [4]: 0 of 10
- survivor count [5]: 10 of 10

SMILES: N#C[CH2][Sn]([I])([c]1ccccc1)[c]1ccccc1
- survivor count (dose: 25.0 mg/kg/injection, schedule: Q01DX009 (ip), vehicle: saline with Tween-80): 3 of 10
- survivor count (dose: 50.0 mg/kg/injection, schedule: Q01DX009 (ip), vehicle: saline with Tween-80): 0 of 10

SMILES: O=C(O)C1(NO)CCCC1
- T/C (dose: 50.0 mg/kg/injection, schedule: Q01DX009 (ip), vehicle: saline): 125 % of control
- survivor count [4]: 10 of 10

SMILES: CCC[CH2][Sn]([Cl])([CH2]CCC)[S]C(=S)NCCNC(=S)[S][Sn]([Cl])([CH2]CCC)[CH2]CCC
- survivor count [6]: 2 of 10

SMILES: Cc1c(C)c2c(c(C)c1O)CCC(C)(CCCC(C)CCCC(C)CCCC(C)C)O2 (stereo not given)
- survivor count [7]: 6 of 6

SMILES: CCCN(CCC)C(C)C(O)c1cc2c(c3ccccc13)CCCC2 (stereo not given)
- survivor count [6]: 10 of 10
- survivor count (dose: 50.0 mg/kg/injection, schedule: Q01DX009 (ip), vehicle: Klucel (hydroxypropylcellulose) (HPC)): 9 of 10
- survivor count [1]: 6 of 10 and 10 of 10
- survivor count [2]: 10 of 10
- survivor count [3]: 10 of 10

SMILES: OC(CBr)C(O)C(O)C(O)CBr (stereo not given)
- T/C (dose: 200.0 mg/kg/injection, schedule: Q01DX009 (ip), vehicle: saline with Tween-80): 141 % of control
- survivor count (dose: 320.0 mg/kg/injection, schedule: Q01DX009 (ip), vehicle: saline with Tween-80): 10 of 10
- T/C (dose: 333.4 mg/kg/injection, schedule: Q01DX009 (ip), vehicle: saline with Tween-80): 125 % of control
- T/C [7]: 126 % of control
- T/C [5]: 140 % of control
